# Test results as given in paper PMC10404622.
# The chains behind the UniProt entries cited, without tags or fusion partners. Where a name states a change or a piece, a line headed by the entry shows the natural chain unless it says otherwise.
# UniProt P09012: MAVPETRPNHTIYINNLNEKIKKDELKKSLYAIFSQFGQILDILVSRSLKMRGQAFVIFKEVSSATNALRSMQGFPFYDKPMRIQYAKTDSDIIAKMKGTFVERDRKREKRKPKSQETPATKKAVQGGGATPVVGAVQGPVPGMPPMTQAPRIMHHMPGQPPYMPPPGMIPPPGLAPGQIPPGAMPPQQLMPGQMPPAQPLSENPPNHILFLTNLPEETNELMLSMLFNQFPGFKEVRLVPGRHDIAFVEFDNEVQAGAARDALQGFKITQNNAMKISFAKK
# UniProt P08621: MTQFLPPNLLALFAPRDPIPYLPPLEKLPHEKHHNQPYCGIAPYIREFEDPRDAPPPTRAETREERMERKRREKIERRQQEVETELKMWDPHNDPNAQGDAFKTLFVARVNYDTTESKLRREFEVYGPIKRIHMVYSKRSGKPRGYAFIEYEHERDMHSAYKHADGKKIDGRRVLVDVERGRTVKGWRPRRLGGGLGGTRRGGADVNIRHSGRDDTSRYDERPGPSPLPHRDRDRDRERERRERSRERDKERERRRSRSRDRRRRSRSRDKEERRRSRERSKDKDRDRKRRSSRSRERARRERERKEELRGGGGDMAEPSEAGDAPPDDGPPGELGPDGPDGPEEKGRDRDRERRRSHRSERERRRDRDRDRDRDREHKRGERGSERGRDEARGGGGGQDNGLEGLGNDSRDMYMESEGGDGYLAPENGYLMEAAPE
# UniProt P09234: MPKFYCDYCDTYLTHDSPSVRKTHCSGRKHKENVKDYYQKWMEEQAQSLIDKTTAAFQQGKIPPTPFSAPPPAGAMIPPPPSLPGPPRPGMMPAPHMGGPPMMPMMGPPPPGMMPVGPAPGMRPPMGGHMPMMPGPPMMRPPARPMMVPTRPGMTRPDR
# These are yes or no findings as the source states them, for the method shown. In cells and extracts the contact can be indirect. Some binding calls cover weakened binding; strength is not graded here.
# Target: U1A (human (endogenous in HeLa)) (UniProt P09012)
# Assay: co-IP; anti-U1A antibody (control IgG beside it); HeLa nuclear extract in the presence of control or U1 AMO (Fig. 1B), and nuclear extract of HeLa cells transfected with control or U1 AMO (Fig. S2A); Western blot for U1-70K, U1A, U1C
row,Substance,binding
1,U1-70K (from UniProt P08621 1-437),binds
2,U1C (from UniProt P09234 1-159),binds
